Measurements from “University of Dundee, Small-Polar-MMV Screening Library” (2021), ChEMBL document CHEMBL3988442.

Amino acid sequences for entries named in this document (tags omitted).
UniProt E9BF75, entry or part of it: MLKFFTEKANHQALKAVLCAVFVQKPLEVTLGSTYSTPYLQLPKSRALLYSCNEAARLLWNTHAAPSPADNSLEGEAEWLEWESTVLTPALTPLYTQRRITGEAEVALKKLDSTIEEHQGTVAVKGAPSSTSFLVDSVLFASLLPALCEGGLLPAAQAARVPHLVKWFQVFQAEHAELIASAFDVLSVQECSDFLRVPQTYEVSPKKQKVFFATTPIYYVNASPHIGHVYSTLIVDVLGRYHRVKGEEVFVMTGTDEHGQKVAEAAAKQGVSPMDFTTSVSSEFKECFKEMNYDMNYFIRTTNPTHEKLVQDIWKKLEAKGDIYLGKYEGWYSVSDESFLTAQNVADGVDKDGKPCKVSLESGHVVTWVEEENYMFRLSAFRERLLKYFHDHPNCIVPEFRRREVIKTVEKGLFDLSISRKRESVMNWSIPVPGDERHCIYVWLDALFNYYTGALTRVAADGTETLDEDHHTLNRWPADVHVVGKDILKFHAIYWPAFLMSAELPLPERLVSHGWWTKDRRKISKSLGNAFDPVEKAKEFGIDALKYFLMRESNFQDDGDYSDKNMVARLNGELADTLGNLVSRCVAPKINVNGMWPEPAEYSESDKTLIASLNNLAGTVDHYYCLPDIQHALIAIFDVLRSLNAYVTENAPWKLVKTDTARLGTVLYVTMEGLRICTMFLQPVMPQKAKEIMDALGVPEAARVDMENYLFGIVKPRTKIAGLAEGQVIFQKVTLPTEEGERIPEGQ

LdMetRS: 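Methionyl-tRNA synthetase (putative), Leishmania donovani (UniProt E9BF75). Primary screen of methionyl-tRNA synthetase; the read-out is not stated. The test concentration is not given. The values are filed as inhibition. Size under these conditions: about 68,000 compounds, about 24 of them at 50% or above in at least one test.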
Mtb heat-shock: 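Assay on Mycobacterium tuberculosis, filed only as a heat shock assay from Cornell; the read-out is not stated. The concentration is filed as 10 mM, unlikely as a test dose, so the dose is not known. Higher reads as stronger inhibition (inferred: compounds with an IC50 in retests scored well above the rest). Size under these conditions: about 69,000 compounds, about 930 of them at 50% or above in at least one test.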

All values are in %.
The record does not define 0% and 100%; most values in the screen are far below 50% and negative numbers occur (in some assays of this library far below -100).
Compounds were drawn at random from those tested, without regard to their results.
A dash means the value is not listed here; it may have been measured.

Compound,LdMetRS,Mtb heat-shock
O=c1ccc2c(n1CC1CCOCC1)CCN(Cc1ccoc1)CC2,6.748,-
CCNC(=O)CNC(=O)c1ccn(S(=O)(=O)c2ccc(C)cc2)c1,16.94,-13.15
O=C(c1cccn1Cc1cccs1)N1CCN2CCCCC2C1 (centres unmarked),11.93,-12.09
CN(CCc1ccccc1)Cc1c(C2CCNCC2)[nH]c2ncccc12.Cl,-,-8.457
N#Cc1ncn(CCS(=O)(=O)c2ccccc2)n1,1.902,5.174
CCCN1C[C@H](NC(=O)c2cccs2)[C@@H](c2ccc(OC)cc2)C1,18.65,-4.848
Cc1nc(CNC(=O)Nc2ccc3c(ccn3CCN(C)C)c2)no1,15.16,-17.73
Cc1nc(COCc2cnc3n2CCN(C)C3C)cs1.O=C(O)C(F)(F)F (centres unmarked),-,-21.71
CN(C)CCN1CCN(Cc2cccc(C#N)c2)Cc2cccnc21,12.18,-
CN1CCCN(C(=O)c2cnc(C(C)(C)C)nc2O)CC1,3.922,-31.11
CN(CC(F)(F)F)C(=O)c1ccc(F)c(NS(C)(=O)=O)c1,12.41,22.02
CCOc1ccc(N(C)Cc2nnc(C3CC3)o2)cc1,-4.261,37.27
Cc1cc(C)n(CC2CCCN2CCc2ccccn2)n1 (centres unmarked),13.68,9.513
O=C([C@H](O)c1ccccc1)N1CCN(c2cccc(Cl)c2)C(=O)C1,5.744,-11.84
O=C(O)C(F)(F)F.O=C(O)C(F)(F)F.[H][C@@]12CN(Cc3ccoc3)C[C@]1([H])C(=O)N(Cc1ccncc1)C2,-,-28.78
CCN1CCN(C(=O)C(C)N2CCc3cncnc3C2)CC1 (centres unmarked),11.02,6.582
CN(C)C1Cc2ccccc2N(S(=O)(=O)c2ccc(C#N)cc2)C1 (centres unmarked),15.05,-45.03
CC(C(=O)N(C)C1CCCCC1)S(=O)(=O)Cc1csc(-c2cccs2)n1 (centres unmarked),14.37,-8.908
O=C(Nc1ccc(N2CCCCC2)nc1)N1CCc2sccc2C1,-,18.45
Cc1nc2[nH]cnc(Nc3ccn(C)n3)c-2n1,16.43,-17.21
CCOC(=O)N1CCN(c2nc(NC3CC3)c3ccccc3n2)CC1,-16.88,-
O=C(NCC1CCOC1)c1csc(-c2cccc(Cl)c2)n1 (centres unmarked),3.644,29.39
Cc1cc(C(=O)N2CCC(Nc3cccnn3)CC2)no1,-1.567,-16.98
Cc1cccc(C(=O)Nc2ccc(OC3CCOCC3)c(C)c2)n1,8.014,-7.187
CN1CCC(N(Cc2ccccc2)C(=O)c2nccn3ccnc23)CC1,10.48,-44.68
O=C(NCc1nncn1C1CC1)c1cccnc1Oc1ccccc1,0.838,-5.572
Cc1nccc(-c2cccc(NCC(=O)N3CCNC(=O)C3)c2)n1,15.43,-8.819
[H][C@@]12OCCN(C(=O)c3occc3C)[C@@]1([H])CC[C@H]2OCc1ccncc1,-,-12.86
CNC(=O)C1CCN(CC(=O)Nc2cc(C(C)C)no2)CC1,17.49,-28.02
Cn1ccnc1CN1CCCN(C(=O)c2ccc3[nH]cnc3c2)CC1,14.8,3.875
COCc1nc2ncc3c(=O)n(-c4ccc(OC)cc4)ccc3n2n1,15.19,6.331
O=C(O)C(F)(F)F.[H][C@@]12CCN(CC3CCOCC3)C[C@@]1([H])[C@H](C(=O)N1CCCO1)CCO2,-,-27.45
Cc1noc(C)c1CN1C[C@@H](C(=O)O)[C@H](c2ccccn2)C1,9.355,0.5237
CCCC(C)NCc1cnc(-c2cccc(C)c2)nc1 (centres unmarked),13.94,49.87
Cc1csc(C2CCCN(C(=O)c3cnc4n[nH]c(C)c4c3)C2)n1 (centres unmarked),15.03,6.996
Cc1cccc(NC2CCN(C(=O)Nc3cc(C)on3)CC2)n1,7.042,-6.517
CCc1nc(CN2CCOC(CN(CC)c3cccnn3)C2)cs1 (centres unmarked),11.34,7.332
CCOc1ccc(CN2C(=O)CC(C)(C(C)C)C2=O)nc1 (centres unmarked),10.87,10.66
O=C(O)C(=O)O.c1coc(CN2CCC(c3ccc4c(c3)OCO4)CC2)c1,-,5.355
Cc1cccc2c1OCCC2NCc1c(C(C)C)nn(C)c1N(C)C (centres unmarked),-16.02,-32.76
Cc1ccsc1-c1cc(C(=O)O)cc(S(=O)(=O)NCc2ccccn2)c1,8.447,-3.362
Cc1nn(-c2ccccc2)c(C)c1-c1ccnc(N2CCC(O)CC2)n1,11.73,20.23
CC(O)CN1CCN(C(=O)c2cc3ccccc3n2C)CC1 (centres unmarked),3.977,-21.47
Cc1ccc2nc(C(=O)N3CC(n4nc(C)cc4C)C3)cn2c1,17.82,-139
CCS(=O)(=O)N1CCO[C@H]2[C@H](Oc3ncccc3F)CC[C@@H]21,9.051,-
CCc1cc(=O)[nH]c2nnc(SCC(=O)NC)n12,1.049,-10.12
Cc1cc(C(=O)NCCN2CCC(C)CC2)nn1C(C)(C)C,4.954,10.64
COc1ccc(CN2CCCC(Cn3nc(C)nc3C)C2)cc1F (centres unmarked),13.89,-7.754
CC(=O)N1CCC2(CCCN2Cc2cnn(C)c2)CC1.O=C(O)C(F)(F)F,-,-13.44
NC(=O)C1CCN(CCc2ccc(NCc3cscn3)cc2)CC1,8.179,1.722
CCn1c(NCc2ccccn2)nc2c(C)nn(C)c2c1=O,5.779,-10.12
CC(N)Cc1ccccc1Sc1ccccc1.O=C(O)/C=C\C(=O)O (centres unmarked),-,31.83
C[C@@H]1CN(C(=O)CCN2CCCC2)CC[C@@]1(O)C1CCC1,13.66,19.7
CNC(=O)CN1CCC(NC2CSCCc3ccccc32)CC1 (centres unmarked),15.33,-2.827
CCn1cnnc1CNC(=O)c1cc(Cl)ccc1F,20.92,2.384
CC(C)c1cc(C(=O)N2CCN(c3ccc(F)c(Cl)c3)CC2)n(C)n1,17.87,-14.12
CN1CC2(CCN(Cc3cccnc3)CC2)c2cccc(F)c21.Cl,-,-33.38
COc1ccc(CC(=O)N2CCC[C@@H](N)[C@@H]2c2ccccc2F)cc1,11.84,-
Cc1nccn1CCCC(=O)Nc1nc(C(C)C)nn1C,-,-23.71
Cc1c(NCCOCC(F)(F)F)cccc1C(=O)N1CCCC1,11.88,-16.07
c1cc(CN2CCOCC3(C2)CN(Cc2nccs2)CCO3)ccn1 (centres unmarked),-2.837,-
Cc1ncc(C(=O)NCCNC(=O)c2ccccc2)s1,11.45,-11.56
O=C(Cn1[nH]c2ccccc2c1=O)N1CCCC(CC2CC2)(C(=O)O)C1 (centres unmarked),25.23,-3.394
Cc1nn(C)c(C)c1CN(C)c1nc(C2CCCC2)nc2c1cnn2C,6.197,-0.2106
CCn1ncc(CN2CCCC(n3c(=O)oc4ccccc43)C2)c1C.Cl (centres unmarked),-,-5.838
OCc1ccc(CN(CCCn2ccnc2)Cc2cccnc2)o1,16.28,13
[H][C@]12CCN(Cc3cc(Cn4cncn4)c(C)cc3C)C[C@]([H])(CC1)N2,-,28.02
CN1CCN(C(=O)Cc2ccsc2)Cc2cccnc21.O=C(O)C(F)(F)F,-,-3.608
O=S(=O)(c1cncc(F)c1)N1CCC2(CCCCC2)C1,9.164,-5.174
CC(CS(C)(=O)=O)NC(=O)N1CC2(CCCC2)c2ccccc21 (centres unmarked),12.14,-1.187
CN(Cc1ccsc1)C(=O)CN1CCOC(Cn2cccn2)C1 (centres unmarked),3.136,-5.07
Cc1cc(C(=O)NC2(c3cccc(F)c3)CCOCC2)no1,10.56,-7.851
O=C(NCc1ccc(Cl)s1)c1cc(CN2CCCC(O)C2)on1 (centres unmarked),5.694,-30.98

The last 4 entries again:

Compound,LdMetRS,Mtb heat-shock
CC(CS(C)(=O)=O)NC(=O)N1CC2(CCCC2)c2ccccc21 (centres unmarked),12.14,-1.187
CN(Cc1ccsc1)C(=O)CN1CCOC(Cn2cccn2)C1 (centres unmarked),3.136,-5.07
Cc1cc(C(=O)NC2(c3cccc(F)c3)CCOCC2)no1,10.56,-7.851
O=C(NCc1ccc(Cl)s1)c1cc(CN2CCCC(O)C2)on1 (centres unmarked),5.694,-30.98